Assay results: PubChem BioAssay AID250 (DTP/NCI, 2004)
The list shows only some results of the screen, not a fair sample: it gathers tests that were run many times, whatever their T/C, doses with no T/C, and many T/C values between a quarter and a half above the control. Other doses and runs of a compound stand elsewhere. T/C is the treated group as % of the vehicle group. Some doses have a count of surviving animals in place of a T/C: the source holds a T/C of zero for them, seemingly a mark for toxic or unscored doses. Some survivor counts are full or nearly so, which does not show that the dose was tolerated: the source hardly ever lists a survival T/C far under the control, and the zero likely stands for such cases as well. For some of these results: Survivors were counted at the toxicity check, usually on the fifth day, unless a day is given; later deaths do not show. Schedules are NCI's codes, read here as Q, the interval in days (D) or hours (H), X, the number of doses. Some schedule codes hold Z or #, which are not explained here. Some entries hold several experiments; their values stand side by side, smallest first. For some of these results: Where survival is the endpoint, the PubChem record calls one and a half times the control and up active, and a quarter to a half above the control has no call in these data; cut-offs in other NCI protocols can differ. Some T/C values are followed by the survivors on the day toxicity was checked, most often the fifth; where none is given, no animal had died by that day.

Assays:
[1] = test system: BDF1 mice, L1210 leukemia sc; assay: NCI In Vivo Anticancer Drug Screen. Data for tumor model L1210 Leukemia (subcutaneous) in B6D2F1 (BDF1) mice; settings: T/C endpoint: median survival time, higher T/C = longer survival
Outline: (§1)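 Antitumor activity is assessed in mice with transplanted tumors by comparing the treated group (T) with the vehicle control group (C).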

[2] = test system: BDF1 mice, L1210 leukemia sc, survival T/C; assay: as above; settings: T/C endpoint: median survival time, higher T/C = longer survival
Outline: as §1

[3] = dose: 5.0 mg/kg/injection, schedule: Q01DX Z (oral), vehicle: methylcellulose (MC)
[4] = dose: 8.4 mg/kg/injection, schedule: Q01DX Z (sc), vehicle: methylcellulose (MC)
[5] = dose: 14.0 mg/kg/injection, schedule: Q01DX Z (oral), vehicle: methylcellulose (MC)
[6] = dose: 14.0 mg/kg/injection, schedule: Q01DX Z (sc), vehicle: methylcellulose (MC)
[7] = dose: 23.0 mg/kg/injection, schedule: Q01DX Z (sc), vehicle: methylcellulose (MC)
[8] = dose: 65.0 mg/kg/injection, schedule: Q01DX Z (oral), vehicle: methylcellulose (MC)
[9] = dose: 108.0 mg/kg/injection, schedule: Q01DX Z (oral), vehicle: methylcellulose (MC)
[10] = dose: 3.0 mg/kg/injection, schedule: Q01DX Z (sc), vehicle: methylcellulose (MC)

SMILES: Nc1nc(=S)c2[nH]cnc2[nH]1
- T/C ([1]; dose: 0.75 mg/kg/injection, schedule: Q01DX009 (sc), vehicle: other): 131 % of control
- T/C ([1]; dose: 0.75 mg/kg/injection, schedule: Q## X009 (sc), vehicle: other): 131 % of control
- T/C ([1]; dose: 1.25 mg/kg/injection, schedule: Q02DX009 (sc), vehicle: other): 127 % of control
- T/C ([1]; dose: 1.25 mg/kg/injection, schedule: Q02DX Z (sc), vehicle: other): 133 % of control
- T/C ([1]; dose: 1.3 mg/kg/injection, schedule: Q01DX Z (sc), vehicle: methylcellulose (MC)): 130 % of control
- T/C ([1]; dose: 1.5 mg/kg/injection, schedule: Q01DX009 (sc), vehicle: other, evaluated on day 7): 137 % of control
- T/C ([1]; dose: 1.5 mg/kg/injection, schedule: Q01DX009 (sc), vehicle: other, evaluated on day 35): 130 % of control
- T/C ([1]; dose: 2.0 mg/kg/injection, schedule: Q01DX Z (sc), vehicle: other): 145 % of control
- T/C ([1]; dose: 3.6 mg/kg/injection, schedule: Q01DX Z (sc), vehicle: methylcellulose (MC)): 131 % of control
- T/C ([1]; dose: 4.0 mg/kg/injection, schedule: Q01DX Z (sc), vehicle: other): 145 % of control
- T/C [1, 3]: 131 % of control [9 of 10 alive]
- T/C ([1]; dose: 6.0 mg/kg/injection, schedule: Q01DX009 (sc), vehicle: other): 149 % of control
- T/C ([1]; dose: 6.0 mg/kg/injection, schedule: Q01DX Z (sc), vehicle: methylcellulose (MC)): 131 % of control
- T/C ([1]; dose: 6.0 mg/kg/injection, schedule: Q## X009 (sc), vehicle: other): 149 % of control
- T/C [1, 4]: 136 % of control [9 of 10 alive]
- T/C ([1]; dose: 10.0 mg/kg/injection, schedule: Q01DX Z (sc), vehicle: methylcellulose (MC)): 131 % of control
- T/C ([1]; dose: 12.0 mg/kg/injection, schedule: Q01DX009 (sc), vehicle: other): 140 % of control
- T/C ([1]; dose: 12.0 mg/kg/injection, schedule: Q## X009 (sc), vehicle: other): 140 % of control [7 of 8 alive]
- T/C [1, 5]: 140 % of control [9 of 10 alive]
- T/C [1, 6]: 145 % of control
- T/C ([1]; dose: 16.0 mg/kg/injection, schedule: Q01DX Z (sc), vehicle: other): 140 % of control
- T/C ([1]; dose: 20.0 mg/kg/injection, schedule: Q02DX009 (sc), vehicle: other): 148 % of control
- T/C ([1]; dose: 23.0 mg/kg/injection, schedule: Q01DX Z (oral), vehicle: methylcellulose (MC)): 145 % of control
- T/C [1, 7]: 140 % of control
- T/C ([1]; dose: 40.0 mg/kg/injection, schedule: Q02DX009 (sc), vehicle: other): 147 % of control
- T/C [1, 8]: 145 % of control
- T/C [1, 9]: 136 % of control
- survivor count ([2]; dose: 1.8 mg/kg/injection, schedule: Q01DX Z (sc), vehicle: methylcellulose (MC)): 6 of 10

SMILES: CCC(=O)NC1=C(N2CC2)C(=O)C(NC(=O)CC)=C(N2CC2)C1=O
- T/C [1, 10]: 125 % of control [8 of 10 alive]
- T/C ([1]; dose: 5.0 mg/kg/injection, schedule: Q01DX Z (sc), vehicle: methylcellulose (MC)): 130 % of control [8 of 10 alive]
- T/C [1, 4]: 130 % of control
- T/C [1, 6]: 130 % of control
- survivor count ([2]; dose: 0.65 mg/kg/injection, schedule: Q01DX Z (sc), vehicle: methylcellulose (MC)): 4 of 10

SMILES: COCCCN=C(N)c1ccc(NC(=O)c2ccc(C(=O)Nc3ccc(C(N)=NCCCOC)cc3)cc2)cc1
- T/C ([1]; dose: 14.0 mg/kg/injection, schedule: Q01DX Z (sc), vehicle: saline): 125 % of control
- T/C ([1]; dose: 23.0 mg/kg/injection, schedule: Q01DX Z (sc), vehicle: saline): 125 % of control
- survivor count ([2]; dose: 65.0 mg/kg/injection, schedule: Q01DX Z (sc), vehicle: saline): 10 of 10

SMILES: Cn1cnc([N+](=O)[O-])c1Sc1ncnc2nc[nH]c12
- T/C ([1]; dose: 130.0 mg/kg/injection, schedule: Q01DX Z (sc), vehicle: methylcellulose (MC)): 135 % of control [6 of 8 alive]
- T/C ([1]; dose: 216.0 mg/kg/injection, schedule: Q01DX Z (sc), vehicle: methylcellulose (MC)): 125 % of control
- T/C ([1]; dose: 833.0 mg/kg/injection, schedule: Q01DX Z (oral), vehicle: methylcellulose (MC)): 133 % of control
- survivor count [2, 10]: 4 of 10
- survivor count [2, 3]: 6 of 10
- survivor count ([2]; dose: 8.4 mg/kg/injection, schedule: Q01DX Z (oral), vehicle: methylcellulose (MC)): 6 of 10
- survivor count [2, 5]: 6 of 10
- survivor count ([2]; dose: 17.0 mg/kg/injection, schedule: Q01DX Z (sc), vehicle: methylcellulose (MC)): 5 of 8
- survivor count [2, 7]: 5 of 10
- survivor count ([2]; dose: 39.0 mg/kg/injection, schedule: Q01DX Z (oral), vehicle: methylcellulose (MC)): 1 of 10
- survivor count ([2]; dose: 39.0 mg/kg/injection, schedule: Q01DX Z (sc), vehicle: methylcellulose (MC)): 1 of 10
- survivor count [2, 8]: 2 of 10
- survivor count ([2]; dose: 65.0 mg/kg/injection, schedule: Q01DX Z (sc), vehicle: methylcellulose (MC)): 0 of 10
- survivor count [2, 9]: 1 of 10 and 4 of 10
- survivor count ([2]; dose: 108.0 mg/kg/injection, schedule: Q01DX Z (sc), vehicle: methylcellulose (MC)): 1 of 10
- survivor count ([2]; dose: 180.0 mg/kg/injection, schedule: Q01DX Z (oral), vehicle: methylcellulose (MC)): 3 of 10
- survivor count ([2]; dose: 180.0 mg/kg/injection, schedule: Q01DX Z (sc), vehicle: methylcellulose (MC)): 1 of 10
- survivor count ([2]; dose: 300.0 mg/kg/injection, schedule: Q01DX Z (oral), vehicle: methylcellulose (MC)): 6 of 10
- survivor count ([2]; dose: 300.0 mg/kg/injection, schedule: Q01DX Z (sc), vehicle: methylcellulose (MC)): 4 of 10
